Measurements as given in patent publication US20240043521A1.
Where a chain is given by its changes, count along the chain named. These are yes or no findings as the source states them, for the method shown. Some results given as binding are weak or reduced against the parent protein; the word gives no strength.

Chains of the proteins cited; added tags and fusions are not shown. Residues count along the entry.
UniProt P07091, residues 2-101: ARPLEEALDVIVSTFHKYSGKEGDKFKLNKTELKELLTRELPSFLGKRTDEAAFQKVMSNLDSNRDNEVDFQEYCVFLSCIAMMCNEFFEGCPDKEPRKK

Columns and labels:
[1] = target: mouse S100A4 protein (mouse) (UniProt P07091); assay: Western blot
[2] = target: mouse S100A4 protein (mouse) (UniProt P07091); assay: immunofluorescence on wild-type MEFs
[3] = target: mouse S100A4 protein (mouse) (UniProt P07091); assay: immunofluorescence on wild-type and S100A4 knock-out MEFs

Measured: binding

B1: VH1_H40Phe VL3 (antibody, V domains shown)
VH: QVQLQESGPGLVKPSQTLSLTCTVSGDSFTNDYYWNWIRQFPGKGLEWIGHIGYGGNINYNPSLKNRLSMSRDTSKNQFSLKLSSVTAADTAVYYCTRESFYDGYPFDYWGQGTLVTVSS
VL: DIQMTQSPSSLSASVGDRVTITCRASQDIRNYLNWYQQKPGKAPKLLLYYTSRLHSGVPSRFSGSGSGTDYTLTISSLQPEDFATYYCQQGNSLPRTFGGGTKVEIK
binds: all assays above

B2: VH1 VL3_L44Leu (antibody, V domains shown)
VH: B1 VH with F41H
VL: B1 VL with P44L
binds: all assays above

B3: VH1_40Phe:VL3_Leu44 (antibody, V domains shown)
VH: B1 VH
VL: B1 VL with P44L
binds: all assays above
